Sequences of proteins named here, by UniProt entry; tags and fusion partners are left off.
UniProt O75376: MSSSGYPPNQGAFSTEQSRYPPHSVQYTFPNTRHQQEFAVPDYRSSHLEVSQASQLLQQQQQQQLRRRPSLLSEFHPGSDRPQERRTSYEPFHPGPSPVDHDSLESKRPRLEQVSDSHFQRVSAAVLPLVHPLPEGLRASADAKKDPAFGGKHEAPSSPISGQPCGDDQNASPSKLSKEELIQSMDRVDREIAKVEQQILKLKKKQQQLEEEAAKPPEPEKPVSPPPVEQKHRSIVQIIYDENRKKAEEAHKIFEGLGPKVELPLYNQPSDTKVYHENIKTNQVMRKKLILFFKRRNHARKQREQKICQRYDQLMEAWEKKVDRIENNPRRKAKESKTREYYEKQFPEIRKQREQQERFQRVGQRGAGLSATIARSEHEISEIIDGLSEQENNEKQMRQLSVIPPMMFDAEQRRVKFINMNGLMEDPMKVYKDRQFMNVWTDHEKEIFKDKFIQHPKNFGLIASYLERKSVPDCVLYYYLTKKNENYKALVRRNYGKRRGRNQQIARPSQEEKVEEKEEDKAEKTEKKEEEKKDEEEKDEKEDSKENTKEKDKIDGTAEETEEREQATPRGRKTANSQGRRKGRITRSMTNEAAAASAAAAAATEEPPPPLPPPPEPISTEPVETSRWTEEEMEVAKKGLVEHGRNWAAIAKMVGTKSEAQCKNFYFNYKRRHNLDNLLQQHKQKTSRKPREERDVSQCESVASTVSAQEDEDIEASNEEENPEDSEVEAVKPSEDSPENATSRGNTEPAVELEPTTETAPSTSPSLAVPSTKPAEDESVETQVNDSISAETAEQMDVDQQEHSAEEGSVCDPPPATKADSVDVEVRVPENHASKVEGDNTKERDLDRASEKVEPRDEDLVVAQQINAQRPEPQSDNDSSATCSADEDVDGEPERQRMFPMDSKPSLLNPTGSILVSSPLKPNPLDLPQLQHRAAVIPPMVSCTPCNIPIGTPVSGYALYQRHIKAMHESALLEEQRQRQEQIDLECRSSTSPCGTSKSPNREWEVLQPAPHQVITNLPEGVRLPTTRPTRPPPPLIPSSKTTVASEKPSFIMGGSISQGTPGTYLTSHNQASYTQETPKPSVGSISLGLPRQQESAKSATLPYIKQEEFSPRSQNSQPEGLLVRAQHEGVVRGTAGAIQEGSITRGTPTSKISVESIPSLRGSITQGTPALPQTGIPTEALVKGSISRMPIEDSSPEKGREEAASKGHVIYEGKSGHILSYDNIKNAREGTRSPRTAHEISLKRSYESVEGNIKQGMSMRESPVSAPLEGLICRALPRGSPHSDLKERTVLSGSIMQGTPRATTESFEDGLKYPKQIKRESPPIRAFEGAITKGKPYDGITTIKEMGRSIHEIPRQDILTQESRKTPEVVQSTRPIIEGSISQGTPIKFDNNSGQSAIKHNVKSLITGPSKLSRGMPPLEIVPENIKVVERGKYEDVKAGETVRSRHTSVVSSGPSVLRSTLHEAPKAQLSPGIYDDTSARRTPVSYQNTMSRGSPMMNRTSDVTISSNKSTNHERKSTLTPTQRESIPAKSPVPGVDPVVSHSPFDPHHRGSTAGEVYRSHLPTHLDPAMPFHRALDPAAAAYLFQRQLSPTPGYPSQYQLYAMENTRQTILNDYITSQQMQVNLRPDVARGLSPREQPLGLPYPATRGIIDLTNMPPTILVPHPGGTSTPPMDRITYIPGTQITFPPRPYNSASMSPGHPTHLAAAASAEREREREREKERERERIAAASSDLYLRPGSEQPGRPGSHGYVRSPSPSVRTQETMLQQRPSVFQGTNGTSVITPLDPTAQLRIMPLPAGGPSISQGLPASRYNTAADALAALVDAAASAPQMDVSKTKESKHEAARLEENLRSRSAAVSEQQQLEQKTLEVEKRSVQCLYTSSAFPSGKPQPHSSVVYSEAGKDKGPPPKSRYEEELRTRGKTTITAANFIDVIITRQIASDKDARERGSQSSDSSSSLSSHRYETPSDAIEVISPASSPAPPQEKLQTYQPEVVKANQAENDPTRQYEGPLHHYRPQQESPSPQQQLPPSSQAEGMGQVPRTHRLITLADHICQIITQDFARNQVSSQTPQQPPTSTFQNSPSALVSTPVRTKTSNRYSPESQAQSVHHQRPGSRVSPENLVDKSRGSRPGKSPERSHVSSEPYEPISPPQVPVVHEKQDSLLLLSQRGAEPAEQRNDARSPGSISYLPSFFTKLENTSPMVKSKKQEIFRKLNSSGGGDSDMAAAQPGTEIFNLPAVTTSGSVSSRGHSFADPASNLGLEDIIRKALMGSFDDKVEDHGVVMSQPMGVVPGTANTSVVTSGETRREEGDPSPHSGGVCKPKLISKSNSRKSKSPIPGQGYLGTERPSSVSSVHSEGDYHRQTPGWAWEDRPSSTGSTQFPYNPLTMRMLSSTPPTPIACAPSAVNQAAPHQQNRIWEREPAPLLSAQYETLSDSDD
UniProt P11142: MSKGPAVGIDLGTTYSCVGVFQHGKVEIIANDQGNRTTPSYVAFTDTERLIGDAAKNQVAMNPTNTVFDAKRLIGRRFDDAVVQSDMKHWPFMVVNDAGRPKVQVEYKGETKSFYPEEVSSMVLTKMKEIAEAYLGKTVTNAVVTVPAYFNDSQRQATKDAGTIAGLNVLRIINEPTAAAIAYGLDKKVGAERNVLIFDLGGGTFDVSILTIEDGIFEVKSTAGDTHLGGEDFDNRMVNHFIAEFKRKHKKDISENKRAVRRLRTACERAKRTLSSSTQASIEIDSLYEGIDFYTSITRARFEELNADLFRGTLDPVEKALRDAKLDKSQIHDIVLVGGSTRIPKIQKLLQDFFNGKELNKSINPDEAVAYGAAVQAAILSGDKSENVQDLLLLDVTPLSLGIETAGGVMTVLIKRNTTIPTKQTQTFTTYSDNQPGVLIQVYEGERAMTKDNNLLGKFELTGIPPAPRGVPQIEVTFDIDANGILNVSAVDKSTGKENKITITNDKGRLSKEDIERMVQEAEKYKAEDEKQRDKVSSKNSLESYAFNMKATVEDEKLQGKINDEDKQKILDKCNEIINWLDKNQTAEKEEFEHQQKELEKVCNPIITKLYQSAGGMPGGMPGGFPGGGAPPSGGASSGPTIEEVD

According to PMC3179509:

Biological target: Flag-tagged N-CoR (nuclear receptor co-repressor) (UniProt O75376)
Experiment: affinity purification with mass spectrometry; flag-tagged N-CoR from 293T cells incubated with protease-depleted, column purified cytosolic extract of H2170 cells; precipitated with anti-flag antibody; bands from SDS-PAGE excised and identified by MS

Hsc70 (from UniProt P11142 1-646)
binding: binds

No constants are given. Whether binding was seen depends on the method and setting. Binding seen in cells or lysates may run through a third protein. These calls come from enrichment with a bait or labelling near it, and not all partners need be listed.
